From the supplement of paper PMC12823440, “Inhibitors supercharge kinase turnover through native proteolytic circuits” (Nature, 2025)
Where a name gives a salt, the structure may show the parent alone. The list shows a part of the results. Hit calls seldom repeat between salt and free forms of one compound.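 Kinases, fused to nanoluciferase, were expressed in K562 cells; luminescence was measured every 4 h from 2 to 18 h as percent of control (DMSO = 100%, positive control = 0%). A time point is decreased if signal falls significantly (2 sigma). Hits were called by the authors by a rule that is not shown; the count of time points alone does not decide it.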

The chains behind the UniProt entries cited, without tags or fusion partners. Where a name states a change or a piece, a line headed by the entry shows the natural chain unless it says otherwise.
UniProt Q15208: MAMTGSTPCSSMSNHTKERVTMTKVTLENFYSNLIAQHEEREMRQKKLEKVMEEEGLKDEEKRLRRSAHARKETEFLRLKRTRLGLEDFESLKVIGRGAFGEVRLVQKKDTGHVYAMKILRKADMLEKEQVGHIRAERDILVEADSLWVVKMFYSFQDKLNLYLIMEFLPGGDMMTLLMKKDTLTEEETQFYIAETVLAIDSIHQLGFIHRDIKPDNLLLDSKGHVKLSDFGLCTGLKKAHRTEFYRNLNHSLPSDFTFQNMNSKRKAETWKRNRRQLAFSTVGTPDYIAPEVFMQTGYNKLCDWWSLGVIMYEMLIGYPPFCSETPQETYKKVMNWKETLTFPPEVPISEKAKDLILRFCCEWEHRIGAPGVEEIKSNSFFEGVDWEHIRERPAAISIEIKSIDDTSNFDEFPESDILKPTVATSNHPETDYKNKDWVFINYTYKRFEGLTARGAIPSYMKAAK
UniProt P42680: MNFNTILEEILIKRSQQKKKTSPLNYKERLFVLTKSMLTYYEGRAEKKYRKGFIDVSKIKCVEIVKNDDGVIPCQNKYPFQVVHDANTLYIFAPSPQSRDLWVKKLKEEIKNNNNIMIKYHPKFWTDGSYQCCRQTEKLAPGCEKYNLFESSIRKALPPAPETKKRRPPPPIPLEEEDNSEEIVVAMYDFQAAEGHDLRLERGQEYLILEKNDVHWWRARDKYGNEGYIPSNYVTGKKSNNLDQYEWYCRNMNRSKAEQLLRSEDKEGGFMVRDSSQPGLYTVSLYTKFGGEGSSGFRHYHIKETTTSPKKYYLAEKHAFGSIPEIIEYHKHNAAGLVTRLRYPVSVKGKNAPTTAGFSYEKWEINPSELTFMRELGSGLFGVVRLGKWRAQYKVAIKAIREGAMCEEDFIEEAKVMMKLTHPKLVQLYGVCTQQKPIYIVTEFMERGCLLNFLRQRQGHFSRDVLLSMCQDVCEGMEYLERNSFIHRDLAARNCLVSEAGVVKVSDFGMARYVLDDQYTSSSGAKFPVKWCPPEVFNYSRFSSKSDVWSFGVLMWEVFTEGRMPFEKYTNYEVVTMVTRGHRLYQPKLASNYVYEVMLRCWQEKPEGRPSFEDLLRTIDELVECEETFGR
UniProt P07947, whole entry, looked up: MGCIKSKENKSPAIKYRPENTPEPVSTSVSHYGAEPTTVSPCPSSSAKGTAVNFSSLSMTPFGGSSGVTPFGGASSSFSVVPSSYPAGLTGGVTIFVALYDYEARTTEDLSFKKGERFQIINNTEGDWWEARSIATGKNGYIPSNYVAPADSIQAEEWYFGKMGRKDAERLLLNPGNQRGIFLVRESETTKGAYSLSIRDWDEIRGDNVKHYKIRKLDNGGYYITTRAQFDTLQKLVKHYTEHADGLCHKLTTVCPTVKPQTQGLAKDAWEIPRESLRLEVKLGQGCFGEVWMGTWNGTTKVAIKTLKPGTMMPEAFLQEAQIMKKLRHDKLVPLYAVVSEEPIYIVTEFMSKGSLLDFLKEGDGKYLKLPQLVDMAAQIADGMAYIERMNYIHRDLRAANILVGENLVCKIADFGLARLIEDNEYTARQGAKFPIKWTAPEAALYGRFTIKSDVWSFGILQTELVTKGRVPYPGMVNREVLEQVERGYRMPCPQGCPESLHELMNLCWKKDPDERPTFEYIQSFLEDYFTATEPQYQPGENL
UniProt P00519, whole entry: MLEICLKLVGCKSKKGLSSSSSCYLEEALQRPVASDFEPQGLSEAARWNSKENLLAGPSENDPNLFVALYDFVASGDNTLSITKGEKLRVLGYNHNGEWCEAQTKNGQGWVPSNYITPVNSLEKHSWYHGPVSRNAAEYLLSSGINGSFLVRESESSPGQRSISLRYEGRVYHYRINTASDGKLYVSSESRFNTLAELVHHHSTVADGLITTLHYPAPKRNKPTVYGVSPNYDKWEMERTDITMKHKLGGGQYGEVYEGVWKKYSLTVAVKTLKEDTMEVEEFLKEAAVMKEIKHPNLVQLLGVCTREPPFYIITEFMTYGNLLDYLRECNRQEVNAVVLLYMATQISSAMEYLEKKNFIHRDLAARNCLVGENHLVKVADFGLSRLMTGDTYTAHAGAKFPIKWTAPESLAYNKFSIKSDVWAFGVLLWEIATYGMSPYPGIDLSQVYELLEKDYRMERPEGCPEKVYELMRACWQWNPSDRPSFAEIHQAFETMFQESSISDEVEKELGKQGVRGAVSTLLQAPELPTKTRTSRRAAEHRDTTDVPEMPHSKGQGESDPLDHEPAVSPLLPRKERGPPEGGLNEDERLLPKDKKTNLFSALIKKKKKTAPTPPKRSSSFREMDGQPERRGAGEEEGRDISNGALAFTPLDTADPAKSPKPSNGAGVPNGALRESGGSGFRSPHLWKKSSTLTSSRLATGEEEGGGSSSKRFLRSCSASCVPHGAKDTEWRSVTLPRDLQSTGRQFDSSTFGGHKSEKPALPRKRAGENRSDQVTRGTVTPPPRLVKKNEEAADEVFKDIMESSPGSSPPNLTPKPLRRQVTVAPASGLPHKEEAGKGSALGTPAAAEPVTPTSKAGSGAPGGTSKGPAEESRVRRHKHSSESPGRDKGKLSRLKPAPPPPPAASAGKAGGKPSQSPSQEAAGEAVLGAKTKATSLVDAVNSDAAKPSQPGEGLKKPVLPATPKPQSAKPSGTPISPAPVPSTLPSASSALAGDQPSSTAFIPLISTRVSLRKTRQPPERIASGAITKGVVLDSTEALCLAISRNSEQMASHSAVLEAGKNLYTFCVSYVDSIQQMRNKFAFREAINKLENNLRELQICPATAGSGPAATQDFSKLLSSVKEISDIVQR
UniProt P31749: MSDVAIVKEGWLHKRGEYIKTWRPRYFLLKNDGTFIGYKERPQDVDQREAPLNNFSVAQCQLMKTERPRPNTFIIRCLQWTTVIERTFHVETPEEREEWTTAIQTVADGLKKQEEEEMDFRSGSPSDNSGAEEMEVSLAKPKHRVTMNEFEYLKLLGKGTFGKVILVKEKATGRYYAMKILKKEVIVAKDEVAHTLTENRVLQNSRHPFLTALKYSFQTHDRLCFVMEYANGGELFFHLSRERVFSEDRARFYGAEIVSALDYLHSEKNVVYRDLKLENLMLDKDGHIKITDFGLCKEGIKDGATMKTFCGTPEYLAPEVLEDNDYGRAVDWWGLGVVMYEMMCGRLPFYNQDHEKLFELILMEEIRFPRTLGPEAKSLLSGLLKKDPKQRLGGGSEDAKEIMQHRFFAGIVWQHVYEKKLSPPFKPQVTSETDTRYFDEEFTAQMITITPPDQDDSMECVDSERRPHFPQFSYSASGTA
UniProt P10398: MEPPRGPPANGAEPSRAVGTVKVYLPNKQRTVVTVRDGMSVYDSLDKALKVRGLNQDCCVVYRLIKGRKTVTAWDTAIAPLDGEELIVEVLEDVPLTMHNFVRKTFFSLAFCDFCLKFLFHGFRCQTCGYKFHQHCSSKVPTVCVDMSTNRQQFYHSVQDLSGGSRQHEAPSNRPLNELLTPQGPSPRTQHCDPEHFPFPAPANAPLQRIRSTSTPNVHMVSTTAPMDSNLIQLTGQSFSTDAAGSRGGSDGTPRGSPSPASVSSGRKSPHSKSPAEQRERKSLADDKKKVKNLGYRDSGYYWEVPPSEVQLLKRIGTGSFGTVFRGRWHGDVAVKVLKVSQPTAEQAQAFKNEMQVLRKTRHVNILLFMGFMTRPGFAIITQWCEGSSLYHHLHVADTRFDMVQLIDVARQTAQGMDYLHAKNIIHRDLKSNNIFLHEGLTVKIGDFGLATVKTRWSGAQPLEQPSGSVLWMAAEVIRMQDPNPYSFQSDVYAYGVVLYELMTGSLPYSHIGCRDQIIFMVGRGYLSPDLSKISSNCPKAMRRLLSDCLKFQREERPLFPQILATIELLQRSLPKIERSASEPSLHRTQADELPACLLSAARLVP
UniProt Q96GD4, whole entry: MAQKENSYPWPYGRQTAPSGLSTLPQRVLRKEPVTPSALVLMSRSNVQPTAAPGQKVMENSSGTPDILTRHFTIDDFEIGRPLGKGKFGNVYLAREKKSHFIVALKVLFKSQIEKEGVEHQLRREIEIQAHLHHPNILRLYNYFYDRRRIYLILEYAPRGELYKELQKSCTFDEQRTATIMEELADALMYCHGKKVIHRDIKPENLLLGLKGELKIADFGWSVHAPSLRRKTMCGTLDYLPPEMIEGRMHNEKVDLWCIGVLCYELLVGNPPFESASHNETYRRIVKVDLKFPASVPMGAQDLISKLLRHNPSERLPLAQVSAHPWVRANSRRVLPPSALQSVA
UniProt P51813: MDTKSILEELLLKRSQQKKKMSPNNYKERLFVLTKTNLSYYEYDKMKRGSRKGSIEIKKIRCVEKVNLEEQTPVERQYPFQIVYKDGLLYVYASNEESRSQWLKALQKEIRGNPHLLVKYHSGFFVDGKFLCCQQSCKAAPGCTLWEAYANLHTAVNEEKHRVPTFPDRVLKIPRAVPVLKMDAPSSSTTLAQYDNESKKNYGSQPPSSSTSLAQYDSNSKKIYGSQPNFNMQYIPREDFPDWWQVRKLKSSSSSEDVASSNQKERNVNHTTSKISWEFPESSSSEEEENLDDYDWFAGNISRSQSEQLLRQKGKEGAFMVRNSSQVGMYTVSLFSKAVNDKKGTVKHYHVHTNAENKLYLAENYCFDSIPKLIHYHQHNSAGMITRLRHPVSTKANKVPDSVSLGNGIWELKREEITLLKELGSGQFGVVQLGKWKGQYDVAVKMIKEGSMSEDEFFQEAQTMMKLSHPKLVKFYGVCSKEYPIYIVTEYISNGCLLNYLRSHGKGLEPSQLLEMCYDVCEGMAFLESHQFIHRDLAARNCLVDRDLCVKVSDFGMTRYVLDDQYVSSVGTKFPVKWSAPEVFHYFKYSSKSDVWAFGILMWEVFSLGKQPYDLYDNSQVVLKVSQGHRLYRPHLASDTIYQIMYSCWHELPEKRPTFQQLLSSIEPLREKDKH
UniProt P15056, whole entry, looked up: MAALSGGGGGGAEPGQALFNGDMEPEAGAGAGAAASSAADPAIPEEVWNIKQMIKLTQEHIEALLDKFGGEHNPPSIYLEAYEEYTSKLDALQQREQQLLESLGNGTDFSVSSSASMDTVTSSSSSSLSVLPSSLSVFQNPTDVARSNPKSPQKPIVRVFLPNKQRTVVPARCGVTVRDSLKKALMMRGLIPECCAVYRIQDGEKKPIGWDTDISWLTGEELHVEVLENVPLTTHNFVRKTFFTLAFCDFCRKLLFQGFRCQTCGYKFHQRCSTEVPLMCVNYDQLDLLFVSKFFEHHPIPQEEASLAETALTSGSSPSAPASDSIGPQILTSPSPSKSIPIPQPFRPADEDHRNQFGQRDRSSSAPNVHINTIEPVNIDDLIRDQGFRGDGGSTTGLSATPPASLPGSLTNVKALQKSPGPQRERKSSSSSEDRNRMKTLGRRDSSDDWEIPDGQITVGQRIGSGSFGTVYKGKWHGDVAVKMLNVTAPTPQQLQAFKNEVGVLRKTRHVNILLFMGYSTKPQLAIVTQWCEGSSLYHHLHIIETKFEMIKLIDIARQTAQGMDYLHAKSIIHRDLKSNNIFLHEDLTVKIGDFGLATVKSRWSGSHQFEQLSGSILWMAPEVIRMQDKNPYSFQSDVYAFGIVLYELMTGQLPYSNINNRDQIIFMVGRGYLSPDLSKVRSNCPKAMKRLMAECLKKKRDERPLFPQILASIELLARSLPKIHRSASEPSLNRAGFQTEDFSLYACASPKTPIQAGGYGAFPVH
UniProt Q06187: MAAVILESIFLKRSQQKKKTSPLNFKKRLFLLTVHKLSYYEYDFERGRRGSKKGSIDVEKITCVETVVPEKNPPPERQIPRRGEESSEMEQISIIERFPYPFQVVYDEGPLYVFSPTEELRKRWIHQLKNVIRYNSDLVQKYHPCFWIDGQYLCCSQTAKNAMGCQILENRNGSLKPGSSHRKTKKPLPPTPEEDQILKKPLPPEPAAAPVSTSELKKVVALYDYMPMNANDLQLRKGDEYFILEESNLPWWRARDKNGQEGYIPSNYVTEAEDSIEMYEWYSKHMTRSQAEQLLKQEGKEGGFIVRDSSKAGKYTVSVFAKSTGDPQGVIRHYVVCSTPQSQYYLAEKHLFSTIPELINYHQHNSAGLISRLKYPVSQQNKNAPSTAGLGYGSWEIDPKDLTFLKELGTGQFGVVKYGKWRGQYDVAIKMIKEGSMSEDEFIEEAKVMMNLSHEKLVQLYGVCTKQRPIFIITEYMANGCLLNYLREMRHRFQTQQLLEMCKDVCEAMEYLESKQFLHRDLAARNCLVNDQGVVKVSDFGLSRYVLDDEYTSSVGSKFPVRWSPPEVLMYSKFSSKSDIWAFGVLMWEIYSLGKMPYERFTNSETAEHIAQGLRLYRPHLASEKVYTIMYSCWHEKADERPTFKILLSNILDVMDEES

Tests used:
Settings in all cases: K562; 2-18 h
[1] = molecular target: STK38 (UniProt Q15208); assay: kinase-Nluc reporter destabilization hit call (1 = scored as downregulated) (binary); higher = compound decreases kinase abundance
[2] = molecular target: SYK (UniProt P43405); assay: as above
[3] = molecular target: TEC (UniProt P42680); assay: as above
[4] = molecular target: TYK2 (UniProt P29597); assay: as above
[5] = molecular target: ULK3 (UniProt Q6PHR2); assay: as above
[6] = molecular target: YES1 (UniProt P07947); assay: as above
[7] = molecular target: ZAK (UniProt Q9NYL2); assay: as above
[8] = molecular target: ZAP70 (UniProt P43403); assay: as above
[9] = molecular target: ABL1 (UniProt P00519); assay: number of time points (of 5) at which kinase-Nluc abundance scored as decreased, DMSO-normalised (count); higher = more persistent destabilization
[10] = molecular target: AKT1 (UniProt P31749); assay: as above
[11] = molecular target: ALK (UniProt Q9UM73); assay: as above
[12] = molecular target: ARAF (UniProt P10398); assay: as above
[13] = molecular target: AURKA (UniProt O14965); assay: as above
[14] = molecular target: AURKB (UniProt Q96GD4); assay: as above
[15] = molecular target: AURKC (UniProt Q9UQB9); assay: as above
[16] = molecular target: BLK (UniProt P51451); assay: as above
[17] = molecular target: BMX (UniProt P51813); assay: as above
[18] = molecular target: BRAF (UniProt P15056); assay: as above
[19] = test system: BRAF_V600E; assay: as above
[20] = molecular target: BTK (UniProt Q06187); assay: as above

SMILES | kinase-Nluc reporter destabilization hit call [1] | kinase-Nluc reporter destabilization hit call [2] | kinase-Nluc reporter destabilization hit call [3] | kinase-Nluc reporter destabilization hit call [4] | kinase-Nluc reporter destabilization hit call [5] | kinase-Nluc reporter destabilization hit call [6] | kinase-Nluc reporter destabilization hit call [7] | kinase-Nluc reporter destabilization hit call [8] | number of time points [9] | number of time points [10] | number of time points [11] | number of time points [12] | number of time points [13] | number of time points [14] | number of time points [15] | number of time points [16] | number of time points [17] | number of time points [18] | number of time points [19] | number of time points [20]
Oc1cc(O)c2cc(O)c(-c3cc(O)c(O)c(O)c3)[o+]c2c1 [Delphinidin (chloride)] (10 µM) | inactive: 0 | inactive: 0 | inactive: 0 | inactive: 0 | inactive: 0 | inactive: 0 | inactive: 0 | inactive: 0 | 4 | 0 | 0 | 0 | 1 | 0 | 0 | 2 | 0 | 3 | 0 | 0
Cc1ccc(OCCSc2ncccn2)c(Br)c1 [ZLN024 (hydrochloride)] (10 µM) | inactive: 0 | inactive: 0 | inactive: 0 | inactive: 0 | inactive: 0 | inactive: 0 | inactive: 0 | inactive: 0 | 0 | 0 | 0 | 0 | 0 | 0 | 0 | 0 | 0 | 0 | 0 | 0
COc1cc2ncc(-c3ccccc3)nc2cc1OC [Tyrphostin AG1296] (10 µM) | inactive: 0 | inactive: 0 | inactive: 0 | inactive: 0 | inactive: 0 | inactive: 0 | inactive: 0 | inactive: 0 | 0 | 0 | 0 | 0 | 0 | 0 | 0 | 0 | 0 | 0 | 0 | 0
CCNc1nc(Nc2cc(F)c(C(=O)N3CCOCC3)cc2OC)ncc1C(F)(F)F [GNE-7915 (tosylate)] (10 µM) | inactive: 0 | inactive: 0 | inactive: 0 | inactive: 0 | inactive: 0 | inactive: 0 | inactive: 0 | inactive: 0 | 0 | 0 | 0 | 0 | 0 | 0 | 0 | 0 | 0 | 0 | 0 | 0
O=C(NCCN1CCCC1)c1cc(-c2ccc(CN3CCOCC3)cc2)nc2ccc(F)cc12 (10 µM) | inactive: 0 | inactive: 0 | inactive: 0 | inactive: 0 | inactive: 0 | inactive: 0 | inactive: 0 | inactive: 0 | 0 | 0 | 0 | 0 | 0 | 0 | 0 | 0 | 0 | 0 | 0 | 0
Oc1cc2c(cc1O)C(Cc1cccc3ccccc13)NCC2 (stereo not given) (10 µM) | inactive: 0 | inactive: 0 | inactive: 0 | inactive: 0 | inactive: 0 | inactive: 0 | inactive: 0 | inactive: 0 | 0 | 0 | 0 | 0 | 0 | 0 | 0 | 0 | 0 | 0 | 0 | 0
NC(=O)c1nnc(N[C@@H]2CCCC[C@@H]2N)nc1Nc1cccc2cc[nH]c12 (10 µM) | inactive: 0 | inactive: 0 | inactive: 0 | inactive: 0 | inactive: 0 | inactive: 0 | inactive: 0 | inactive: 0 | 1 | 0 | 0 | 0 | 0 | 0 | 0 | 1 | 1 | 0 | 0 | 0
O=C1NC(=O)/C(=C\c2cccc(C(F)(F)F)c2)S1 (2.5 µM) | inactive: 0 | inactive: 0 | inactive: 0 | inactive: 0 | inactive: 0 | inactive: 0 | inactive: 0 | inactive: 0 | 0 | 0 | 0 | 0 | 0 | 0 | 0 | 0 | 0 | 0 | 0 | 0
O=C(NCCN1CCOCC1)c1cc2c(Oc3ccc(NC(=O)C4(C(=O)Nc5ccc(F)cc5)CC4)cc3)ccnc2[nH]1 [Tyrosine kinase inhibitor] (10 µM) | inactive: 0 | inactive: 0 | inactive: 0 | inactive: 0 | inactive: 0 | inactive: 0 | inactive: 0 | inactive: 0 | 0 | 0 | 0 | 0 | 0 | 0 | 0 | 0 | 0 | 0 | 0 | 0
CCCS(=O)(=O)Nc1ccc(F)c(C(=O)c2c[nH]c3ncc(-c4ccc(Cl)cc4)cc23)c1F [Vemurafenib] (10 µM) | inactive: 0 | inactive: 0 | inactive: 0 | inactive: 0 | inactive: 0 | inactive: 0 | inactive: 0 | inactive: 0 | 2 | 0 | 1 | 0 | 0 | 0 | 0 | 2 | 2 | 1 | 0 | 0
Cc1cc(CN2CCN(c3c(Br)cnc4nc(-c5ccc(N6CCN(C)CC6)cc5)[nH]c34)CC2)no1 (2.5 µM) | inactive: 0 | inactive: 0 | inactive: 0 | inactive: 0 | inactive: 0 | inactive: 0 | inactive: 0 | inactive: 0 | 0 | 0 | 0 | 0 | 0 | 0 | 0 | 0 | 0 | 0 | 0 | 0

Laid out differently: 2 of the compounds above
SMILES,kinase-Nluc reporter destabilization hit call [1],kinase-Nluc reporter destabilization hit call [2],kinase-Nluc reporter destabilization hit call [3],kinase-Nluc reporter destabilization hit call [4],kinase-Nluc reporter destabilization hit call [5],kinase-Nluc reporter destabilization hit call [6],kinase-Nluc reporter destabilization hit call [7],kinase-Nluc reporter destabilization hit call [8],number of time points [9],number of time points [10],number of time points [11],number of time points [12],number of time points [13],number of time points [14],number of time points [15],number of time points [16],number of time points [17],number of time points [18],number of time points [19],number of time points [20]
Oc1cc2c(cc1O)C(Cc1cccc3ccccc13)NCC2 (stereo not given) (10 µM),inactive: 0,inactive: 0,inactive: 0,inactive: 0,inactive: 0,inactive: 0,inactive: 0,inactive: 0,0,0,0,0,0,0,0,0,0,0,0,0
NC(=O)c1nnc(N[C@@H]2CCCC[C@@H]2N)nc1Nc1cccc2cc[nH]c12 (10 µM),inactive: 0,inactive: 0,inactive: 0,inactive: 0,inactive: 0,inactive: 0,inactive: 0,inactive: 0,1,0,0,0,0,0,0,1,1,0,0,0
